No constants are given. Whether binding was seen depends on the method and setting. In cells and extracts the contact can be indirect. Some binding calls cover weakened binding; strength is not graded here.
Biological target: T1, HM-HN1 (pCW57-HM-HN1), Doxycycline-induced in stable DU-145 cells (human) (UniProt Q9UK76)
T1 sequence: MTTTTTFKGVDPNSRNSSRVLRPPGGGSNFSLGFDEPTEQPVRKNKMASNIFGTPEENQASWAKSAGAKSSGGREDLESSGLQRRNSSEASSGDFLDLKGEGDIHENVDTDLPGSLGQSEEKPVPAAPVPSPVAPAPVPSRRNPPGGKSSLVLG
Test: co-IP; anti-HN1 antibody crosslinked to Dynabeads G; lysate of DU-145 pCW57-HM-HN1 cells induced with Doxycycline and transfected with Cdh1-HA; immunoblot with anti-Cdh1

By UniProt entry, the sequences of proteins in these tests, tags left out.
UniProt Q9UM11: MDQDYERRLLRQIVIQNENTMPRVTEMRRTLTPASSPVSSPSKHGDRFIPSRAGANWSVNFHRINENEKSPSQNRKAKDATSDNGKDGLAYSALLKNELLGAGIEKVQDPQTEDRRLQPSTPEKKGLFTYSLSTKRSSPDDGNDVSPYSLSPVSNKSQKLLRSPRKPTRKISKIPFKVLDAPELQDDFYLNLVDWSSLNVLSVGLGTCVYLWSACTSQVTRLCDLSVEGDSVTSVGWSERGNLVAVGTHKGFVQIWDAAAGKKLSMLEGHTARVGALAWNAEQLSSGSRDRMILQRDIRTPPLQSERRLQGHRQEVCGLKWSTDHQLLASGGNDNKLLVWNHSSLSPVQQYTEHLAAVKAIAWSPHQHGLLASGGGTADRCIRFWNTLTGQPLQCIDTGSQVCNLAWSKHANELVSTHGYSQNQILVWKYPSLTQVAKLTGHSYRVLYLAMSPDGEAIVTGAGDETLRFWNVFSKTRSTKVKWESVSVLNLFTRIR

binding: binds
Substance: Cdh1-HA (Addgene No. 11596), expressed in DU-145 cells (from UniProt Q9UM11 1-496)
